These are yes or no findings as the source states them, for the method shown. Binding seen in cells or lysates may run through a third protein. Some entries that bind do so weakly or less than the wild type.

By UniProt entry, the sequences of proteins in these tests, tags left out.
UniProt Q3TKT4: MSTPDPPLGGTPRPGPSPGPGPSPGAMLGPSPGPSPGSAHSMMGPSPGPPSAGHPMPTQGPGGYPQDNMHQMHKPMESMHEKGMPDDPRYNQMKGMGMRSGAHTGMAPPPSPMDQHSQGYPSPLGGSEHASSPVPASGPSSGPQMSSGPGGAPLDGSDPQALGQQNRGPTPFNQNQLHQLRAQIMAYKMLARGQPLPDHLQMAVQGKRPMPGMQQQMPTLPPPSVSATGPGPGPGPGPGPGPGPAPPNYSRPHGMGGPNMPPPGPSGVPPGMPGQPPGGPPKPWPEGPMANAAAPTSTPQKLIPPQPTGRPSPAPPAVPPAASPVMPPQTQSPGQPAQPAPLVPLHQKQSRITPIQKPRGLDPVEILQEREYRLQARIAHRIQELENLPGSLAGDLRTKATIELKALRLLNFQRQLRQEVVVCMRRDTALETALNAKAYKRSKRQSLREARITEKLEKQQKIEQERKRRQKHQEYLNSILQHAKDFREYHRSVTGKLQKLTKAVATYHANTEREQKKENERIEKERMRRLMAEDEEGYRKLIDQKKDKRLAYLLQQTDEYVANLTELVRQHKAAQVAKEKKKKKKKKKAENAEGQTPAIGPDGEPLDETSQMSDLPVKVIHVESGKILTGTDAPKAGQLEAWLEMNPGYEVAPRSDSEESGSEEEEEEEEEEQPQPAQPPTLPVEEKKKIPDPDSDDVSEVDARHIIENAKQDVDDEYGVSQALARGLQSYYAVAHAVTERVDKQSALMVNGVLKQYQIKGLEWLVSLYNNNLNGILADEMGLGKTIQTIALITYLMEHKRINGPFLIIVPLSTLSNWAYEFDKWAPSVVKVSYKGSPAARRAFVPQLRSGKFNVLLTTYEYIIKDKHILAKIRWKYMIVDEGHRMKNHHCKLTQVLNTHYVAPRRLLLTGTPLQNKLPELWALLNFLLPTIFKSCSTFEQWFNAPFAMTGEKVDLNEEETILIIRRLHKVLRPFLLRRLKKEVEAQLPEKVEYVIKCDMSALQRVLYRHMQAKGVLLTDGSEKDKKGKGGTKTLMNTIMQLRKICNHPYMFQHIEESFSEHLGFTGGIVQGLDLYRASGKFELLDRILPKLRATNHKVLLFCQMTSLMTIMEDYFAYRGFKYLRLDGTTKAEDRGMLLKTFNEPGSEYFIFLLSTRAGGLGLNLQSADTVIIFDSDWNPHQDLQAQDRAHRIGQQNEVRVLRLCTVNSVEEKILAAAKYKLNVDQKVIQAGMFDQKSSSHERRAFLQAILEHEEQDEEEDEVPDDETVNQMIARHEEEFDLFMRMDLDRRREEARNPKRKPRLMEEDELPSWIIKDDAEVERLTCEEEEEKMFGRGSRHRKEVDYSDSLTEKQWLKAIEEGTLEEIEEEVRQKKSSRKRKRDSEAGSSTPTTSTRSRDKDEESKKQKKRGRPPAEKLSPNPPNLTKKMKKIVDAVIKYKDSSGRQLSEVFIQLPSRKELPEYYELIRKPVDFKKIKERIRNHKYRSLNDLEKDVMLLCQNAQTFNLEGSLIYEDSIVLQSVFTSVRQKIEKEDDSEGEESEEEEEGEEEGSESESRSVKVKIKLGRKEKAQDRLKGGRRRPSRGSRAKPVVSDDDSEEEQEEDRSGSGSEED
UniProt Q03347: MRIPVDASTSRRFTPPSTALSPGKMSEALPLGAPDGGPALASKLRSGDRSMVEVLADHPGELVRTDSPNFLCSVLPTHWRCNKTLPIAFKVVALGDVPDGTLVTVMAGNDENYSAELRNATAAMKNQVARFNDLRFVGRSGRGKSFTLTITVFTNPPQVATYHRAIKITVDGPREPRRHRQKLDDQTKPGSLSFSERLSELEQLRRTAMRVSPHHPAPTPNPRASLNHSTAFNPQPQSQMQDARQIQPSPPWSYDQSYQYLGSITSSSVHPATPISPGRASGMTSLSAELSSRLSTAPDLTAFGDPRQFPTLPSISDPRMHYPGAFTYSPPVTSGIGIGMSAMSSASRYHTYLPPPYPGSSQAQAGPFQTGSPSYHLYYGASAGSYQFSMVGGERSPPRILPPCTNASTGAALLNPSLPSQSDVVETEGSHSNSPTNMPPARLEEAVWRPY

This test addresses Brahma-related gene 1 (Brg1) (mouse (endogenous in neonatal mouse cardiomyocytes)) (UniProt Q3TKT4). Put plainly: co-IP; nucleoprotein extracted from neonatal mouse cardiomyocytes; IP antibody or IgG with lysate at 4°C overnight, Protein A or Protein G magnetic beads, SDS-PAGE detection; which protein was precipitated is not told.

For the substance RUNX1 (from UniProt Q03347 1-451), the binding result is “binds”.

The record behind these values is paper PMC11669506.
